Source: patent publication US20240299394A1, “TARGETED TREATMENT FOR SKIN FRAGILITY DISEASES” (University of Washington, priority 2023, published 2024)
At least one structure is not confirmed: it was looked up by name or label, or the drawing left a doubt.

Columns and labels:
[1] = trametinib added to RAF inhibitors, multiple clinical trials (Carlos G, et al. 2015); cited from earlier work
ERK = experiment: Western blotting of pERK in NHEK lysates; type: cell-based, human; conditions: Dab or Vem plus trametinib 1 μM, 24 hours
Experimental: NHEKs were seeded at a density of 1×10^6 cells per well of 6-well cell culture dishes in M154. Upon reaching confluence, M154 was replaced with E-medium containing vehicle control (DMSO) or inhibitors at the following concentrations: Dabrafenib (1 μM), vemurafenib (10 μM), trametinib (1 μM). After 24 hours, whole-cell lysates were generated by washing cells once in phosphate-buffered saline (PBS) followed by lysis in urea sample buffer [8 M Urea, 60 mM Tris, 1% SDS, 10% glycerol, 5% β-mercaptoethanol, 0.0005% pyronin-Y, pH 6.8] for 10 min. Lysates were homogenized using a microtip probe sonicator (Fisher Scientific).
Whole-cell lysates were loaded onto NuPAGE 12% Bis-Tris Gels (Thermo-Fisher Cat. #NP0343BOX) and separated by electrophoresis using NuPAGE MES SDS Running Buffer (Thermo-Fisher Cat. #NP0002). Proteins were transferred onto Immobilon-FL membrane (Millipore of Burlington, MA, Cat. #IPFL85R) in transfer buffer (25 mM Tris, 192 mM glycine, 20% (v/v) methanol) at 50 volts (V) for 60 minutes. Membranes were blocked in Intercept tris-buffered saline (TBS) blocking buffer (LI-COR) for 60 minutes at room temperature. Membranes were probed overnight at 4° C. with the primary antibodies diluted in Intercept TBS blocking buffer (LI-COR). […]

NHEK monolayers = experiment: Monolayer mechanical dissociation assay, SERCA2 inhibition with thapsigargin; type: cell-based, human; conditions: with 1 μM TG, 24 hours; 1 μM Tram, 10 μM U0126, 20 μM PD98059, 1 μM dabrafenib
Experimental: (§1) Dispase-based mechanical dissociation assays were carried out as described (Simpson C L, et al. Am J Pathol. 2010; 177(6): p. 2921-37). Keratinocytes were plated at a density of 1×10^6 cells per well of 6-well cell culture dishes. Upon reaching confluence, the calcium concentration of the medium was adjusted to 1.3 mM. Vehicle control (DMSO) or chemical inhibitors were added at the following concentrations: […] After 24 to 72 hours, monolayers were washed with PBS and then incubated with 500 μL dispase (5 U/ml) in Hank's balanced salt solution (Stemcell Technologies of Vancouver, CA, Cat. #07913) for 30 minutes at 37° C. Next, 4.5 ml PBS was added to the wells and all liquid plus released monolayers were transferred into 15 mL conical tubes, which were placed together in a rack and inverted 5-10 times to induce mechanical stress. Monolayer fragments were transferred back into 6-well cell culture plates and imaged with a 12-megapixel digital camera. Fragments were counted in Fiji.

NHEKs = experiment: KRT10 immunostaining of TG-treated keratinocytes; type: cell-based, human; conditions: 1 μM TG plus 1 μM Tram, 48 hours
Experimental: Keratinocytes were grown to confluence in 35 mm, glass-bottom cell culture dishes (MatTek of Ashland, MA, #P35G-1.5-20-C). For staining keratins and desmosomal proteins, cells were fixed in ice-cold 100% methanol at −20° C. for 2 minutes, allowed to dry, then re-hydrated in PBS. For staining other proteins, cells were fixed in 4% paraformaldehyde for 10 minutes at 37° C. Fixed cells were then incubated with blocking buffer [0.5% (w/v) bovine serum albumin (BSA, Sigma), 10% (w/v) normal goat serum (NGS, Sigma) in PBS] for 30 minutes at 37° C. Cells were then washed with PBS. Primary antibodies were diluted in 0.5% (w/v) BSA in PBS and incubated on the cells overnight at 4° C. Primary antibody dilutions were as follows: rabbit anti-SERCA2 (1:200), rabbit anti-cytokeratin 10 (1:2,000), mouse anti-Desmoglein 1 (1:100), mouse anti-Desmoglein 2 (1:100), mouse anti-Desmoglein 3 (1:100), mouse anti-Plakoglobin (1:100), rabbit anti-PERK1/2 (1:400), and mouse anti-ERK1/2 (1:400). Cells were washed three times with PBS, then incubated with species-specific secondary antibodies diluted at 1:300 (with or without Hoechst at 1:500) in 0.5% (w/v) BSA in PBS for 30 min at 37° C. […]
Fluorescence microscopy images were analyzed using Fiji software. Quantification of fluorescence intensity was performed in a blinded manner using non-visibly identifiable microscopy images. […]

[2] = system: HET or KO keratinocyte sheets; experiment: Monolayer mechanical dissociation assay, SERCA2-deficient keratinocytes; type: cell-based, human; conditions: HET or KO monolayers; trametinib 1 μM 48 hours; PD98059 20 μM 24 hours
Experimental: as §1

[3] = system: organotypic epidermis of NHEKs; experiment: Organotypic epidermis treated with B-RAF inhibitors (H&E, immunostaining); type: cell-based, human
Experimental: Inhibitors were used at the following concentrations: Dabrafenib (1 μM), vemurafenib (10 μM), trametinib (1 μM).
Paraffin-embedded formalin-fixed tissue cross-sections on glass slides were incubated at 65° C. for 2 hours. Sections were prepared for staining by immersion in 3 baths of xylenes (Fisher) for 5 minutes each, followed by 3 baths of 95% ethanol for 5 minutes each, then 70% ethanol for 5 minutes, and finally 3 baths of PBS for 5 minutes each.

[4] = system: organotypic epidermis grown from NHEKs; experiment: Histology (H&E) of organotypic epidermis treated with TG; type: cell-based, human; conditions: 1 μM TG plus 20 μM PD98059 or 1 μM trametinib
[5] = B-RAF-inhibited epidermal cultures plus Tram

## CC(=O)Nc1cccc(-n2c(=O)n(C3CC3)c(=O)c3c(Nc4ccc(I)cc4F)n(C)c(=O)c(C)c32)c1 [trametinib]
[1]
  drug-induced GD: eliminated drug-induced GD
ERK
  effect on B-RAF inhibitor-induced ERK activation (Western blotting): completely dampened
NHEK monolayers
  integrity of epithelial sheets despite SERCA2 inhibition: restored
NHEKs
  effect on TG-induced suppression of KRT10: mitigated
[2]
  resistance of keratinocyte sheets to mechanical stress (number of fragments): enhanced the resistance of HET or KO keratinocyte sheets to disruption by mechanical stress
[3]; [5]
  DSG1 levels: augmented
  KRT10 levels: augmented
[3]; Dab or Vem in combination with Tram, 48 hours
  plakoglobin localization at cell-cell borders: rescued plakoglobin localization at cell-cell borders
[4]
  effect on TG-induced loss of keratinocyte cohesion: mitigated
[4]; 48 hours
  effect on TG-induced retention of nuclei in cornified layers / cornification: reduced TG-induced retention of nuclei in the cornified layers
